These results are taken from PMC7859239.

In the assay the target is T1, S. pombe Pol I subunit AC40 with C-terminal flag-his tag (Schizosaccharomyces pombe (endogenous in S. pombe)) (UniProt O94616).
T1 sequence: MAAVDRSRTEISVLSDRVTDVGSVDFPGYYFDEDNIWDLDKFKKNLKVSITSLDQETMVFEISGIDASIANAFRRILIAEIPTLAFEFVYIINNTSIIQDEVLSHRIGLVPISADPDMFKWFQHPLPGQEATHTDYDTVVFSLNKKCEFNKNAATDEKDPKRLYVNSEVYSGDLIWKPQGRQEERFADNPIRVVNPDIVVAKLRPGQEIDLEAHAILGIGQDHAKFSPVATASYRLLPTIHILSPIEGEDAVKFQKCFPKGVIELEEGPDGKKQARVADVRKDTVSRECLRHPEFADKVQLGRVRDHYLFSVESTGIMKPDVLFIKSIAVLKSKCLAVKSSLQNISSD
Kind of assay: affinity purification with mass spectrometry; endogenous Pol I purified from S. pombe extract by the 10xHis tag on AC40 (Ni-NTA), then MonoQ and MonoS; subunits seen as bands on Coomassie-stained SDS-PAGE; A49/A34.5 also by mass spectrometry.

Results are given in words; binding and its absence hold for the method and conditions named. In cells and extracts the contact can be indirect. These calls come from enrichment with a bait or labelling near it, and not all partners need be listed. Sequences can lack the tags named with a protein.

B1: S. pombe Pol I subunit A14 (ker1 in Sp) (protein, UniProt Q9P7P1 1-147)
chain: MATECPPKMILRKSEKLDKDASSKFLNRYIQTIERFQDEKSGSESVLSQLNRVLMYLKGEEIPLISLNLPVQGPPTEELIIPPEEMLETKEEESLKHAREENDDLHLDKETKKRLKKEKKKAARREKEEARKAKADTTQGVGEKEQS
With B1, the binding entry is listed as “binds”.

B2: S. pombe Pol I subunit A135 (protein, UniProt Q9P7X8 1-1174)
chain: MSFQTLERERTFKNPPKDGTSFPDLQKAVKPHVDSFNALTNAGLLNYAVKEIGEKCAFDSITQEEGGALKFGNKISFRVDEVQIAKPMLSSRERSSINRKVYPAEARERLTTYKSRLVLKFSWSVNGGPRQSEMREVGMIPIMVRSNRCHLEGLSPAELIAHKEESEEMGGYFIVNGIEKLIRMLILPKRNHPTAIIRPSFANRGTSYSQYGLSIRCVRPDQSSLTNTLHYLNNGVTMFRFHWRKNEYLIPSMMILKALLETSDKEIFEGIVGKDLGNTFLTDRVELMLRAYKSYGLYSQTETLQYLGSKFRVVLGVAEDLTDVEVGRFLLQKVVLVHLREAKDKFRLLLFMIRKLYALVAGECCADNPDSPQHQEILLGGFLYGQILKEKIEDWLNSIRAQINLDVRRSAPGVDFSDRKYLTRVFSKINNDIGTKLQYFLSTGNLVSNTGLDLQQATGYTVVAEKLNFYRFLSHFRMVHRGAFFAELKTTTVRKLLPEAWGFMCPVHTPDGSPCGLLNHLARKCEIVTHPSDVSQIPSLLLSLGVDPPSVVGHESGWGCVQLDGKIVGWCTYKLAKHVADVLRLMKIEYAVKLRNGTATEPAKVPLDLEIGYVPPSHNGQYPGLYLFSNPARMVRPVKHISTGELDMLGPFEQVYMDIACFPKEIVPKVSTHVEYSPTNVLSIVANMTPFSDFNQSPRNMYQCQMGKQTMGTPGTALRYRTDNKLYRLQTGQTPVVRPKLHNTYGLDHYPNGTNAVVAVISYTGYDMEDAMILNKSAHERGFGYGTVYKGESFDLSQKRRRGEPVVHHFGFAPGSTPRREWLQKLDADGLPFIGIKLEDGDPIVAYYDESTGQNFIETYHGTEPGFVDEVRLLGNDVGDSECQQIHVKLRITRSPIIGDKFSSRHGQKGICSQKWPTVDMPFTESGMQPDIIINPHAFPSRMTIGMFIESLAGKAGACHGLAQDSTPFIYSEQQTAADYFGEQLVKAGYNYHGNEPMYSGITGQEMKADIYIGVVYYQRLRHMVSDKFQVRTTGPIHNLTRQPVKGRKRAGGIRFGEMERDAVIGHGTSFLMQDRLMNCSDYAQSWVCRDCGSIISIMSTISMNGVGSASEVRCRSCAKPALGLEDTSDIWQDGSGKKFVGGTNTTLIALPSVFNYLTAELTAMNIKMMLEVK
In the case of B2, the binding result is listed as “binds”.
